In patent publication US8318674B2, “Local treatment of bone defects” (Kuros Biosurgery AG, priority 2005, dated 2012):
At least one peptide structure holds a part that was inferred or is arguable (an end, a ring closure or a residue). Some entries share one result that the patent states for a list of compounds.

Assays:
[1] = Stability of PTH or TGPTH in buffer (spiked samples, direct ELISA); format: physicochemical; details: 100 μg/ml, 50 mM mannitol in 10 mM sodium acetate buffer
Experimental: For the first release assay, a fibrin matrix of 50 μl with 0.1 mg PTH or TGPTH per ml fibrin matrix was incubated at 37° C. in 10 ml buffer. Therefore, the concentration of PTH or TGPTH in the buffer in case of a total release would be 0.5 μg PTH or TGPTH/mL fibrin matrix. In order to compare the stability of PTH or TGPTH during the assay, samples of PTH or TGPTH were diluted directly in the buffer to a concentration of 0.5 μg PTH or TGPTH/mL fibrin matrix. Different buffers were tested: distilled water, phosphate buffer saline, tris-buffer saline.
Aliquots were taken at days 0, 1, 2, 4 and 6 and analysed by direct ELISA. […] Therefore, no conclusion could be made on the release data. The PTH stability was certainly affected by its low concentration and the buffers that were not optimal.
The release experiment was repeated by using a stabilizing buffer containing 50 mM mannitol in a 10 mM sodium acetate buffer. In addition, the buffer was exchanged every 2 days in order to prevent any degradation of peptide. […] The concentration of PTH or TGPTH in the buffer in case of a total release would be 100 μg/mL fibrin matrix (200 times more than before). […] Samples were collected every 2 to 4 days (with a change of buffer) during 2 weeks and analysed by direct ELISA. […]

[2] = PTH release from a fibrin matrix; format: physicochemical; details: 1 mg/mL fibrin matrix, 100 μl matrix in 1 ml stabilizing buffer, buffer exchanged every 2 days; FIG. 2

Structure (SMILES) | stability in stabilizing buffer [1] [weeks] | released from the fibrin matrix after day 3 [2] [%]
CC[C@H](C)[C@H](NC(=O)[C@H](CCC(=O)O)NC(=O)[C@H](CO)NC(=O)[C@@H](NC(=O)[C@@H](N)CO)C(C)C)C(=O)N[C@@H](CCC(N)=O)C(=O)N[C@@H](CC(C)C)C(=O)N[C@@H](CCSC)C(=O)N[C@@H](Cc1cnc[nH]1)C(=O)N[C@@H](CC(N)=O)C(=O)N[C@@H](CC(C)C)C(=O)NCC(=O)N[C@@H](CCCCN)C(=O)N[C@@H](Cc1cnc[nH]1)C(=O)N[C@@H](CC(C)C)C(=O)N[C@@H](CC(N)=O)C(=O)N[C@@H](CO)C(=O)N[C@@H](CCSC)C(=O)N[C@@H](CCC(=O)O)C(=O)N[C@@H](CCCN=C(N)N)C(=O)N[C@H](C(=O)N[C@@H](CCC(=O)O)C(=O)N[C@@H](Cc1c[nH]c2ccccc12)C(=O)N[C@@H](CC(C)C)C(=O)N[C@@H](CCCN=C(N)N)C(=O)N[C@@H](CCCCN)C(=O)N[C@@H](CCCCN)C(=O)N[C@@H](CC(C)C)C(=O)N[C@@H](CCC(N)=O)C(=O)N[C@@H](CC(=O)O)C(=O)N[C@H](C(=O)N[C@@H](Cc1cnc[nH]1)C(=O)N[C@@H](CC(N)=O)C(=O)N[C@@H](Cc1ccccc1)C(=O)O)C(C)C)C(C)C [PTH1-34] | ≥ 2 | 
CC[C@H](C)[C@H](NC(=O)[C@H](CCC(=O)O)NC(=O)[C@H](CO)NC(=O)[C@@H](NC(=O)[C@H](CO)NC(=O)[C@H](CC(C)C)NC(=O)[C@@H]1CCCN1C(=O)[C@H](CO)NC(=O)[C@@H](NC(=O)[C@H](CCC(N)=O)NC(=O)[C@H](CCC(=O)O)NC(=O)[C@H](CCC(N)=O)NC(=O)[C@@H](N)CC(N)=O)C(C)C)C(C)C)C(=O)N[C@@H](CCC(N)=O)C(=O)N[C@@H](CC(C)C)C(=O)N[C@@H](CCSC)C(=O)N[C@@H](Cc1c[nH]cn1)C(=O)N[C@@H](CC(N)=O)C(=O)N[C@@H](CC(C)C)C(=O)NCC(=O)N[C@@H](CCCCN)C(=O)N[C@@H](Cc1c[nH]cn1)C(=O)N[C@@H](CC(C)C)C(=O)N[C@@H](CC(N)=O)C(=O)N[C@@H](CO)C(=O)N[C@@H](CCSC)C(=O)N[C@@H](CCC(=O)O)C(=O)N[C@@H](CCCNC(=N)N)C(=O)N[C@H](C(=O)N[C@@H](CCC(=O)O)C(=O)N[C@@H](Cc1c[nH]c2ccccc12)C(=O)N[C@@H](CC(C)C)C(=O)N[C@@H](CCCNC(=N)N)C(=O)N[C@@H](CCCCN)C(=O)N[C@@H](CCCCN)C(=O)N[C@@H](CC(C)C)C(=O)N[C@@H](CCC(N)=O)C(=O)N[C@@H](CC(=O)O)C(=O)N[C@H](C(=O)N[C@@H](Cc1c[nH]cn1)C(=O)N[C@@H](CC(N)=O)C(=O)N[C@@H](Cc1ccccc1)C(=O)O)C(C)C)C(C)C [TGPTH] | ≥ 2 | 13
